Laboratory results from patent US20080221093A1, “Metalloprotease inhibitors containing a heterocyclic moiety” (priority 2007, published 2008).
Some of these results come from one statement about several compounds together. Some ranges recur; such a range may be that of the whole group of compounds.

Molecular target: T1, catalytic domain of MMP-13 enzyme (Homo sapiens, UniProt P45452)
T1 construct: stock solution of catalytic domain of MMP-13 enzyme; purchased Invitek (Berlin) 30100812
Assay: Assay for determining MMP-13 inhibition (fluorescent substrate)
Type: biochemical
Settings: compounds named as ranging from 100 nM to 20 μM; units printed inside the value (lower bound nM, upper bound μM)
Procedure: Assay for Determining MMP-13 Inhibition
The typical assay for MMP-13 activity is carried out in assay buffer comprised of 50 mM Tris, pH 7.5, 150 mM NaCl, 5 mM CaCl2 and 0.05% Brij-35. Different concentrations of tested compounds are prepared in assay buffer in 50 μL aliquots. 10 μL of a 50 nM stock solution of catalytic domain of MMP-13 enzyme (produced by Alantos or commercially available from Invitek (Berlin), Cat.# 30100812) is added to the compound solution. The mixture of enzyme and compound in assay buffer is thoroughly mixed and incubated for 10 min at room temperature. Upon the completion of incubation, the assay is started by addition of 40 μL of a 12.5 μM stock solution of MMP-13 fluorescent substrate (Calbiochem, Cat. No. 444235). The time-dependent increase in fluorescence is measured at the 320 nm excitation and 390 nm emission by automatic plate multireader. The IC50 values are calculated from the initial reaction rates.

O=C(Cc1csc2nc[nH]c(=O)c12)NCc1ccc2c(c1)NC(=O)CO2 [1/8]
IC50: 100 to 20000 nM

O=C1COc2ccc(CNC(=O)c3ccc4c(c3)NC(=O)CO4)cc2N1 [3/26]
IC50: 100 to 20000 nM

O=C(Cc1ccc2c(c1)NC(=O)CO2)Nc1ccc2c(c1)OCC(=O)N2 [3/248]
IC50: 100 to 20000 nM

O=C1C[C@H](C(=O)NCc2ccc3c(c2)NC(=O)CO3)NC(=O)N1 [Example 1]
IC50: 100 to 20000 nM
